# According to the supplement of paper PMC12819154, “High-throughput peptide-centric local stability assay extends protein–ligand identification to membrane proteins, tissues and bacteria” (Nature Structural & Molecular Biology, 2025):
# Sequences of proteins named here, by UniProt entry; tags and fusion partners are left off. A change or cut given only in a name is not applied to a line headed by its entry.
# UniProt Q96E29: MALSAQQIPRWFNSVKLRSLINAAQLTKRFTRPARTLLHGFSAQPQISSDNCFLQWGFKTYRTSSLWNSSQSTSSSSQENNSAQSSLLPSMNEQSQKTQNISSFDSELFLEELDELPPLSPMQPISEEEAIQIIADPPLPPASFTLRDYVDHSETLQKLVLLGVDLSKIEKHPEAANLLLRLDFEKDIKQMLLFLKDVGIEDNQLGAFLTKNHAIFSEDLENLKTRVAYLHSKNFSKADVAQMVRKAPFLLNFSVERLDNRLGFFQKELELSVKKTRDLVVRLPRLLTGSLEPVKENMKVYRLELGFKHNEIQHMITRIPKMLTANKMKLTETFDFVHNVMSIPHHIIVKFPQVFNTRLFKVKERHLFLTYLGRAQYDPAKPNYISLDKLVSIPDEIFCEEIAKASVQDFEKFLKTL
# UniProt Q96A19: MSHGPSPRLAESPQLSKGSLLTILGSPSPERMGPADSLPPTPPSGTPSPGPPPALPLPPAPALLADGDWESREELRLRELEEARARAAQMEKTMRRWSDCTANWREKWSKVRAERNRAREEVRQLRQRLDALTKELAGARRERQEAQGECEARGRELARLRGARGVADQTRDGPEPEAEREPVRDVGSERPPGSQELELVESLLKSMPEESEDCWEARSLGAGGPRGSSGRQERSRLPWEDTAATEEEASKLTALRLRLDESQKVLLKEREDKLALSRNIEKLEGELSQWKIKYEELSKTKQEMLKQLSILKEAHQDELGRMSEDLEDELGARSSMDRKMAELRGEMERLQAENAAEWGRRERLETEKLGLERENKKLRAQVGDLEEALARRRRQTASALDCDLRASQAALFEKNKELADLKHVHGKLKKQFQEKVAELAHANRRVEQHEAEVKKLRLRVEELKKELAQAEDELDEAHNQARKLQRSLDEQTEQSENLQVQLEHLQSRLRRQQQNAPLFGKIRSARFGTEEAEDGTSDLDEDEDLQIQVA
# UniProt Q96D46: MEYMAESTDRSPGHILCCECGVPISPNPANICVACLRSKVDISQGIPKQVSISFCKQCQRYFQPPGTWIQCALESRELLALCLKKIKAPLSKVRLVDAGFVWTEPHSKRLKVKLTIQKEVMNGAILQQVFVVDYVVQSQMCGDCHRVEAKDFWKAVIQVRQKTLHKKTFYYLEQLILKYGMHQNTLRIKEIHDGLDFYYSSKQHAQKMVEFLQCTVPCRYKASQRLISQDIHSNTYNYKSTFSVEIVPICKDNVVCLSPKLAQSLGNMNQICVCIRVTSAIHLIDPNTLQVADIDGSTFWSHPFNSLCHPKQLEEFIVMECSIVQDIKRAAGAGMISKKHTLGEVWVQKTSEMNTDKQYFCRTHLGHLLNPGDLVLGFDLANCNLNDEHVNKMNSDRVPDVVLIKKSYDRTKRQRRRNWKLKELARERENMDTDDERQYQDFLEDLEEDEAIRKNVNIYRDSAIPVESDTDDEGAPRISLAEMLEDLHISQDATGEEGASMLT
# UniProt Q96CN4: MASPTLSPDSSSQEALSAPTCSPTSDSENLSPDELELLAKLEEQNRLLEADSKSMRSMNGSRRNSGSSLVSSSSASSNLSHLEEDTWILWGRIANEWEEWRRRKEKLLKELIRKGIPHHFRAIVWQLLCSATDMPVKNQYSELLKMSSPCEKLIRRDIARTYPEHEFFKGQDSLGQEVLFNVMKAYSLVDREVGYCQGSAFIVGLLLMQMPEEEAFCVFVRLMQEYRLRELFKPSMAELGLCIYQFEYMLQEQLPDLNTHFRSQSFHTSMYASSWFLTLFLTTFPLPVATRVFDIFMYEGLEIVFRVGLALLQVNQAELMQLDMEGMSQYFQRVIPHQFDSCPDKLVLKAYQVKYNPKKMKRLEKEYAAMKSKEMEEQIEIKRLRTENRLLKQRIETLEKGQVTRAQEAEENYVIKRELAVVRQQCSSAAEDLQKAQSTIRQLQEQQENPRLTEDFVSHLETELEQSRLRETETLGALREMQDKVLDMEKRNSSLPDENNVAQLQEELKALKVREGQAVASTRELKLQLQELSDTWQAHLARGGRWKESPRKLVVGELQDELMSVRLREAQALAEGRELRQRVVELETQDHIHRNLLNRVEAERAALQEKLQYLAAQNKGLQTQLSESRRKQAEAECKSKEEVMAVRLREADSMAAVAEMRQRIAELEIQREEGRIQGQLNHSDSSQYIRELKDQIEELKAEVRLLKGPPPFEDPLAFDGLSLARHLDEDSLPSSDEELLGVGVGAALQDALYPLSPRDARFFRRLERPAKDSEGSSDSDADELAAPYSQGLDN
# UniProt Q96EM0: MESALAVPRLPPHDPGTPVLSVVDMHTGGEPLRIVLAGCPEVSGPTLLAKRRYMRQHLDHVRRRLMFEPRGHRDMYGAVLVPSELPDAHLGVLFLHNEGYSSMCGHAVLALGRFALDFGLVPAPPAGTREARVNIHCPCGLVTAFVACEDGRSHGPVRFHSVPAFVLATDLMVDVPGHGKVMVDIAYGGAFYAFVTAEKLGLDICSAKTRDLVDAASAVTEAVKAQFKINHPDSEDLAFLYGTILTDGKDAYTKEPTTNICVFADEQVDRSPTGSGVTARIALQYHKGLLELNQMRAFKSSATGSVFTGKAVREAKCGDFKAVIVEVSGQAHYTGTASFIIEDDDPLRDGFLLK
# UniProt Q969S9: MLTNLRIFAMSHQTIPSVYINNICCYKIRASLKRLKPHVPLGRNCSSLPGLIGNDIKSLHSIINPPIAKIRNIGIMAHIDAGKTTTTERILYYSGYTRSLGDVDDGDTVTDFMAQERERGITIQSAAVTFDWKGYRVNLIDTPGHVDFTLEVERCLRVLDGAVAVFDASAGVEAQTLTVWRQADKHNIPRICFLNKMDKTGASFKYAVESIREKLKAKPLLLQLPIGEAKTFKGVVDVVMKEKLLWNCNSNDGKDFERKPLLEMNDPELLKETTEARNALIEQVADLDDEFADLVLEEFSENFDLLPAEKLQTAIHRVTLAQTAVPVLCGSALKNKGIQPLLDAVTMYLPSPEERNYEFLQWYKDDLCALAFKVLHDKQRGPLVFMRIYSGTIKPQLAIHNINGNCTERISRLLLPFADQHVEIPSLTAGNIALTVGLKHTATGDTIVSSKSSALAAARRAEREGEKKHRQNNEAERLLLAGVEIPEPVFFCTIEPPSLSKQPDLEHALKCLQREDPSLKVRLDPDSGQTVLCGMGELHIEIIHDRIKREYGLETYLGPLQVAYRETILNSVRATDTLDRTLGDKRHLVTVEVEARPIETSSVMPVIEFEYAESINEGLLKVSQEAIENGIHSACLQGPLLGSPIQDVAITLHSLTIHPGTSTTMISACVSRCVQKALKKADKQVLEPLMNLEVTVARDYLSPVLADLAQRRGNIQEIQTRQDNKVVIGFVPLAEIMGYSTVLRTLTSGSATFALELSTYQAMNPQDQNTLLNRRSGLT
# UniProt Q96DU7: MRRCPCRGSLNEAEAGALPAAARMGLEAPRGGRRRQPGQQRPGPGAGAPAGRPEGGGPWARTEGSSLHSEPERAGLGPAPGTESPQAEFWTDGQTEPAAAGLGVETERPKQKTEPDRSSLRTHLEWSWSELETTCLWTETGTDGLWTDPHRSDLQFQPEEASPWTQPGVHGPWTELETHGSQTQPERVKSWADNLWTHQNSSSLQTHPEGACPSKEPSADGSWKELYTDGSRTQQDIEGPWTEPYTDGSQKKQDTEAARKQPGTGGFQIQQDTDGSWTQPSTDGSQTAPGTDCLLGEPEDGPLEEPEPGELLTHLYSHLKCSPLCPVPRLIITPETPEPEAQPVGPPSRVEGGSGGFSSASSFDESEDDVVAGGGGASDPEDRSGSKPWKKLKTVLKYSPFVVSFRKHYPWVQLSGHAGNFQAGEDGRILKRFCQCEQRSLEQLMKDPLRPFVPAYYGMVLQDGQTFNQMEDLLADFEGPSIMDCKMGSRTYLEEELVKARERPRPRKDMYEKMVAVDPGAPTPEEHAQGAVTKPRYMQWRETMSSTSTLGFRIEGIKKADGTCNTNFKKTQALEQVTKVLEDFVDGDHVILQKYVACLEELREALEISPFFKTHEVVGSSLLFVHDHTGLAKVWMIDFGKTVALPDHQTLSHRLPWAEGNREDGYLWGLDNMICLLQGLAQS
# UniProt Q96EU6: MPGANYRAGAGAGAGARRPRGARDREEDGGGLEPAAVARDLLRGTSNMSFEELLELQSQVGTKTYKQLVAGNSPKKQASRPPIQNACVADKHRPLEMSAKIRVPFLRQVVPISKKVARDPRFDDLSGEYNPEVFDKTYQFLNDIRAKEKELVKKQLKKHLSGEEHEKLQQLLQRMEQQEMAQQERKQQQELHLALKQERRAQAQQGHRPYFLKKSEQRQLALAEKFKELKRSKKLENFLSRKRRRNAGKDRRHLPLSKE
# UniProt Q96DP5: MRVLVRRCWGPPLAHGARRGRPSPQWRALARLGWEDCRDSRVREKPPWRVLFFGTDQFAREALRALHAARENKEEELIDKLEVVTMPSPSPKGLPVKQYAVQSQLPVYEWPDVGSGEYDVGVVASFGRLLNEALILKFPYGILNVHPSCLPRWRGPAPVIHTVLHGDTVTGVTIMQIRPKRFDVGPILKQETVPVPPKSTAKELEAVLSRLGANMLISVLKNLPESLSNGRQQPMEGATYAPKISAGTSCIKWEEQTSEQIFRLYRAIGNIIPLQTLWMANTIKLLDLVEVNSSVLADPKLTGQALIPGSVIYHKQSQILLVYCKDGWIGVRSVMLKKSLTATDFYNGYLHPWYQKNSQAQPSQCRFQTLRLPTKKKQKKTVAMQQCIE
# UniProt Q969Q6: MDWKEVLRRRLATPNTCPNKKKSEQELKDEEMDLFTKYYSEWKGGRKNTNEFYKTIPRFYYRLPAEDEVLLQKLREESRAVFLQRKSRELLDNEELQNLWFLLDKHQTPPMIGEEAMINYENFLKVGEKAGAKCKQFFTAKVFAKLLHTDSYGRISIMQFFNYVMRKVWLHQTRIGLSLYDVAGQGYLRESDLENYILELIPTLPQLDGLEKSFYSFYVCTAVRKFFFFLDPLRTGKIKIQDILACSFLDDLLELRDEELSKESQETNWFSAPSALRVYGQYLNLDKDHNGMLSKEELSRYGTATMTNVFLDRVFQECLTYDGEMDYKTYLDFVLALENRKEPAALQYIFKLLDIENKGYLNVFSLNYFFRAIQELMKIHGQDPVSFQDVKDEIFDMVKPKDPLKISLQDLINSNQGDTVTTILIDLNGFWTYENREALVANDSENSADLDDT
# This is one part of the list. Most values lie at the level of the controls, where differences are scatter.
# Compound: Cc1nc(Nc2ncc(C(=O)Nc3c(C)cccc3Cl)s2)cc(N2CCN(CCO)CC2)n1 [dasatinib]
# Test: log2 fold change of tryptic peptide abundance, ligand vs vehicle (limited proteolysis) (log2 ratio); higher = more trypsin-susceptible (destabilized)
# Settings: ligand concentration: 5 uM; sample: K562 cleared lysate
row,Target,log2 fold change
1,"UniProt Q96E29 (peptide sequence: DYVDHSETLQK, peptide start residue: 148)",0.52
2,"CCDC102A (peptide sequence: TKQEMLK, peptide start residue: 300) (UniProt Q96A19)",0.417
3,"NMD3 (peptide sequence: KNVNIYR, peptide start residue: 454) (UniProt Q96D46)",-0.363
4,"EVI5L (peptide sequence: VVELETQDHIHR, peptide start residue: 583) (UniProt Q96CN4)",-1.46
5,"UniProt Q96EM0 (peptide sequence: GLLELNQMR, peptide start residue: 288)",-0.181
6,"GFM2 (peptide sequence: KPLLEMNDPELLK, peptide start residue: 259) (UniProt Q969S9)",0.635
7,"ITPKC (peptide sequence: KQDTEAAR, peptide start residue: 252) (UniProt Q96DU7)",-0.26
8,"UniProt Q96EU6 (peptide sequence: DREEDGGGLEPAAVAR, peptide start residue: 24)",-0.158
9,"MTFMT (peptide sequence: FPYGILNVHPSCLPR, peptide start residue: 138) (UniProt Q96DP5)",0.555
10,"PPP2R3C (peptide sequence: KNTNEFYK, peptide start residue: 47) (UniProt Q969Q6)",1.49
